According to the supplement of paper PMC6411743:
± gives the standard deviation of the averaged measurements. The list shows a part of the results, in another mix than the full data. Small differences around the control level are noise.

Chains of the proteins cited; added tags and fusions are not shown. Lines headed by an entry give the natural chain unless they say otherwise; changes in a name come on top.
UniProt Q9UDY4: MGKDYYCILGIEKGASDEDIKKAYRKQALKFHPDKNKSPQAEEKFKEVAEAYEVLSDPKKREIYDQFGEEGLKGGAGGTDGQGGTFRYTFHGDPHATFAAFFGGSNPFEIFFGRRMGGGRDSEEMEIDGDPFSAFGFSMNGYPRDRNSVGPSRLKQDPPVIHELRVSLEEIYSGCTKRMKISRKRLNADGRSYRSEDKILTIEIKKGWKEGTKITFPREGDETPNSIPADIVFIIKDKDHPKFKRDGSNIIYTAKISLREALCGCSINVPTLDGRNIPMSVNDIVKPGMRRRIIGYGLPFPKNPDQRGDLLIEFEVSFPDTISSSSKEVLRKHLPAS
UniProt Q8NCE0: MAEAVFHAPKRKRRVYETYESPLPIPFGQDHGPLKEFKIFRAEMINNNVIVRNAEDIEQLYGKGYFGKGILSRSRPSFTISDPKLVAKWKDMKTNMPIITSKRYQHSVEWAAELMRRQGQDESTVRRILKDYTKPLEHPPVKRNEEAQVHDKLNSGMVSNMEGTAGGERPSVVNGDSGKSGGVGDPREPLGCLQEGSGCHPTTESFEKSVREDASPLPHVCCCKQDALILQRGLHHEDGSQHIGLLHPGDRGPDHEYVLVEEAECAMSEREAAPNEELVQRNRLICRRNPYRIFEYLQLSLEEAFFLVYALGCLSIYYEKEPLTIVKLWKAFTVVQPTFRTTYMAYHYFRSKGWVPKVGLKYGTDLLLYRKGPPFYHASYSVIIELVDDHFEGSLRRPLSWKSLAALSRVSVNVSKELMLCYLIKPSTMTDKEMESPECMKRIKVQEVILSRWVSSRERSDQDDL
UniProt Q13098: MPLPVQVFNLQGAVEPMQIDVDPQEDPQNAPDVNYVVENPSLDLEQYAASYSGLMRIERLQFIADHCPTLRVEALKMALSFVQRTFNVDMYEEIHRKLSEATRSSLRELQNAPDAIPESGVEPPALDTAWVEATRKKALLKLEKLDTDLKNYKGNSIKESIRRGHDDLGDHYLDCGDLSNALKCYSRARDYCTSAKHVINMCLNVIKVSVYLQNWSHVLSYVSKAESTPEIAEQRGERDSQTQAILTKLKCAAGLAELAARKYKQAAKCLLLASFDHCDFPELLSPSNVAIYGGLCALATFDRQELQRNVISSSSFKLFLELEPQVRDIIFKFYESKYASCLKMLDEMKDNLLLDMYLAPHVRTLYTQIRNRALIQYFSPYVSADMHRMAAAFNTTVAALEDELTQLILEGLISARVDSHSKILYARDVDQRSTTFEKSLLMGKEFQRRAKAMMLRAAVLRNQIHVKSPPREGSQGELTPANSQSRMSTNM
UniProt P24864, whole entry: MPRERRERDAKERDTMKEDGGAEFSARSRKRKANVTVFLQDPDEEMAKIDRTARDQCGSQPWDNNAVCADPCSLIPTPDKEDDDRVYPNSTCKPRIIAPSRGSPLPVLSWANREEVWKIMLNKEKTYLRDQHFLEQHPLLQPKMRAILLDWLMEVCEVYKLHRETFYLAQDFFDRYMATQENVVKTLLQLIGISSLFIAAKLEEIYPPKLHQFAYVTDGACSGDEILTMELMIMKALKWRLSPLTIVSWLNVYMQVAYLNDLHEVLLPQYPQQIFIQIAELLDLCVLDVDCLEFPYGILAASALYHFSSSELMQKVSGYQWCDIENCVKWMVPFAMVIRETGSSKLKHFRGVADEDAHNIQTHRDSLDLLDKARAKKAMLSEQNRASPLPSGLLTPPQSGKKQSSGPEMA
UniProt P78330: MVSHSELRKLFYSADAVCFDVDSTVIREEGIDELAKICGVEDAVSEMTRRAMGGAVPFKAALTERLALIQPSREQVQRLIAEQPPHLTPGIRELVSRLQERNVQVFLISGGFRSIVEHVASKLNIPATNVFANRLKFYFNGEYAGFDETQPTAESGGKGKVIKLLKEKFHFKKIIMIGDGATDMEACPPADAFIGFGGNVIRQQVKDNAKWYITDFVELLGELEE
UniProt Q8TAC1: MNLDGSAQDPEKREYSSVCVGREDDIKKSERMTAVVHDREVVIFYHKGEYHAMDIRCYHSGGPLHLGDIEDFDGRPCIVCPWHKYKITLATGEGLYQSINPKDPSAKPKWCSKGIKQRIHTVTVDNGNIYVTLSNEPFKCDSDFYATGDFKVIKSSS
UniProt P99999: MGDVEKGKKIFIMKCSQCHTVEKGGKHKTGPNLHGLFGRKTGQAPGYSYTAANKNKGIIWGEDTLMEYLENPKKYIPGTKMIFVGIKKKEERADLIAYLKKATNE
UniProt Q13506: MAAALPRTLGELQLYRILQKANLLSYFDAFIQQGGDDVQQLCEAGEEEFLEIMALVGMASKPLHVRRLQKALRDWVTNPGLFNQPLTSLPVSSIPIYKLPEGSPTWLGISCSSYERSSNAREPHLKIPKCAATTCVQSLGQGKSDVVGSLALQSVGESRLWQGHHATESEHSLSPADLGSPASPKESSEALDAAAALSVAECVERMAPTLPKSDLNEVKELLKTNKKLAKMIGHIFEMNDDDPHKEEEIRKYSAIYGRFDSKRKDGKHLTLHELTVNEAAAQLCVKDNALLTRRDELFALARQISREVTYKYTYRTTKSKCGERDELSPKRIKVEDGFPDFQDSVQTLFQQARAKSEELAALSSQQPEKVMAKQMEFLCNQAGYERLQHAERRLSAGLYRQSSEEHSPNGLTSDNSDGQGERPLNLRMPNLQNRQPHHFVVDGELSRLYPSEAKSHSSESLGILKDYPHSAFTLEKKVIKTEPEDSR
UniProt Q7L3B6: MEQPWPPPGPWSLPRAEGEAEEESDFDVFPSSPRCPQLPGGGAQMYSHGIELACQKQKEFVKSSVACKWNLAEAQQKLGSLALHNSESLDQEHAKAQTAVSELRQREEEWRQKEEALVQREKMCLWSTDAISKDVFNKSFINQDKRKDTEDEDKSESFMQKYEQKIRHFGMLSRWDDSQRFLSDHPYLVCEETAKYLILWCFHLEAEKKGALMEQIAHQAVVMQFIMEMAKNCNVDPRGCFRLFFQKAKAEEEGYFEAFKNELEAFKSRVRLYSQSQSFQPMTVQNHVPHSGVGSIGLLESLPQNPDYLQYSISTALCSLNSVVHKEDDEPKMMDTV
UniProt A2RRP1: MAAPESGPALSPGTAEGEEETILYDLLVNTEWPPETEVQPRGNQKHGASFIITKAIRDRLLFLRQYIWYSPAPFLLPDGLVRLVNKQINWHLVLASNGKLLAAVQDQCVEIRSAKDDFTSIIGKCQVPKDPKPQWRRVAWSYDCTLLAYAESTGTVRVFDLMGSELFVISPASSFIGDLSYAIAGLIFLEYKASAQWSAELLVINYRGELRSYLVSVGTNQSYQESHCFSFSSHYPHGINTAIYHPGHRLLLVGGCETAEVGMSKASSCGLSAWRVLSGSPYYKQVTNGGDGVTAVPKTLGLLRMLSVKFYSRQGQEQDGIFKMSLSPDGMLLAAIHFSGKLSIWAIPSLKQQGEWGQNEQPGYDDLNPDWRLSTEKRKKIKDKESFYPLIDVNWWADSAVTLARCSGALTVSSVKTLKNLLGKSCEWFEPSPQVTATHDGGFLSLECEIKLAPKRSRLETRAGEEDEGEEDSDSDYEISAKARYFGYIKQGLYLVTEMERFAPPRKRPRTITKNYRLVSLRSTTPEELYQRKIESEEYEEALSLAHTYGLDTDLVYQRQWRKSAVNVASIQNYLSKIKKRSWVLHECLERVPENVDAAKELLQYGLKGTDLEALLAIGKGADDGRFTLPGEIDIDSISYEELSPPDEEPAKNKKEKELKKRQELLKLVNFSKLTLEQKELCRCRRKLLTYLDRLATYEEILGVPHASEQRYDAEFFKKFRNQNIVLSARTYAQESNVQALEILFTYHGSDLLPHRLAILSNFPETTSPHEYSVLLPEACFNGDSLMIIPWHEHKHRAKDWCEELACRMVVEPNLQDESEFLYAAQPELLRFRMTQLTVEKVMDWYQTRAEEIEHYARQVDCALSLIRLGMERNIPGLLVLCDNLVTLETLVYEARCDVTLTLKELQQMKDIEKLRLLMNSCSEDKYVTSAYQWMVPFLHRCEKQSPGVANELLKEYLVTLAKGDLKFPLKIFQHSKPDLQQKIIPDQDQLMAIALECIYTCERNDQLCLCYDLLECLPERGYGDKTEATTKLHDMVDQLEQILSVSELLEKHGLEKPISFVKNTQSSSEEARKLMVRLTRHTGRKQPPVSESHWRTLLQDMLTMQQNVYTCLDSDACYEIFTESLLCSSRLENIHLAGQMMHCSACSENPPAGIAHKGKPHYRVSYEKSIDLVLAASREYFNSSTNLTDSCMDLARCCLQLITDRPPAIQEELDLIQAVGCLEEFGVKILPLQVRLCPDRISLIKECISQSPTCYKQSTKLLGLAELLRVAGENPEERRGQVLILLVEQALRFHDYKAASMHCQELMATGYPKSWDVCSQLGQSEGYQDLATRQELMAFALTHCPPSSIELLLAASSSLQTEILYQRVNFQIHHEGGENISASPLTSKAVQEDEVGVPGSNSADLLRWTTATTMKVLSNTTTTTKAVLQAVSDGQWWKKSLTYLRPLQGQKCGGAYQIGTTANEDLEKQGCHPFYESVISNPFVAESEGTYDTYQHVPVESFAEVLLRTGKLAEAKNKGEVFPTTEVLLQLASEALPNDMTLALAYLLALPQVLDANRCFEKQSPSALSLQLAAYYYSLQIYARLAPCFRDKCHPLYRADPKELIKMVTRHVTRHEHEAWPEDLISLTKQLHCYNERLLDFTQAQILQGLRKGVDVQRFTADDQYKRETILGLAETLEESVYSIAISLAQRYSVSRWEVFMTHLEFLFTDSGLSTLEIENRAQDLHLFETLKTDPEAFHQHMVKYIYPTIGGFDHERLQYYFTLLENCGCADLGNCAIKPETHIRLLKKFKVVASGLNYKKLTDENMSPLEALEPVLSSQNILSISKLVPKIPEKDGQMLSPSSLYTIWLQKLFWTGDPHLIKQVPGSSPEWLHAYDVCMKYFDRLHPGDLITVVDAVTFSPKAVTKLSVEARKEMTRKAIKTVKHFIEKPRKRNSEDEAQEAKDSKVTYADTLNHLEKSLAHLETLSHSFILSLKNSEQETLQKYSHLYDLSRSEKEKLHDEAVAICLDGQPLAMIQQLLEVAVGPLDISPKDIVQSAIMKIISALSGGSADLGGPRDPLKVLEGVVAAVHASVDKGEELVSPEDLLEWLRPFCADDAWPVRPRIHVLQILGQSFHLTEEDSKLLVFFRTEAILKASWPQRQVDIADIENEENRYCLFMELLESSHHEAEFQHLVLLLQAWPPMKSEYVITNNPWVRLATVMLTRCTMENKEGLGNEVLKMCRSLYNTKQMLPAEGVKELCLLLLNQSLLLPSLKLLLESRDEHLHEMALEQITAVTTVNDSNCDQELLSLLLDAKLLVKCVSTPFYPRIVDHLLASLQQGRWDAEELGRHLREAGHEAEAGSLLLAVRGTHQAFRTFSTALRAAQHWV
UniProt Q15257: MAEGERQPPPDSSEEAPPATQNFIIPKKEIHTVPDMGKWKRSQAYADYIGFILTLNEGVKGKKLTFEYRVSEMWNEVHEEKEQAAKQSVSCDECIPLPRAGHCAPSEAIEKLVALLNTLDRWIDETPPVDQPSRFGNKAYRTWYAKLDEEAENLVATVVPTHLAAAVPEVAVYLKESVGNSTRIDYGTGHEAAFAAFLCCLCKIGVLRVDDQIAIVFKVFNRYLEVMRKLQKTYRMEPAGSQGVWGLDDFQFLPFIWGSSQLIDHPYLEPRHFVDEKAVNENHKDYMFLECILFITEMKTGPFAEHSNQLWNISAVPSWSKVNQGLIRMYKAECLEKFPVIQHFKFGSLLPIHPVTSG
UniProt P35080, whole entry: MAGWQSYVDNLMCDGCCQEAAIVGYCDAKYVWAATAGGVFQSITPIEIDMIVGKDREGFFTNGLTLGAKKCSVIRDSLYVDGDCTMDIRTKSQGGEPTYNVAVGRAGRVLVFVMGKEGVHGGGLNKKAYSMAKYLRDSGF
UniProt Q9NVN3: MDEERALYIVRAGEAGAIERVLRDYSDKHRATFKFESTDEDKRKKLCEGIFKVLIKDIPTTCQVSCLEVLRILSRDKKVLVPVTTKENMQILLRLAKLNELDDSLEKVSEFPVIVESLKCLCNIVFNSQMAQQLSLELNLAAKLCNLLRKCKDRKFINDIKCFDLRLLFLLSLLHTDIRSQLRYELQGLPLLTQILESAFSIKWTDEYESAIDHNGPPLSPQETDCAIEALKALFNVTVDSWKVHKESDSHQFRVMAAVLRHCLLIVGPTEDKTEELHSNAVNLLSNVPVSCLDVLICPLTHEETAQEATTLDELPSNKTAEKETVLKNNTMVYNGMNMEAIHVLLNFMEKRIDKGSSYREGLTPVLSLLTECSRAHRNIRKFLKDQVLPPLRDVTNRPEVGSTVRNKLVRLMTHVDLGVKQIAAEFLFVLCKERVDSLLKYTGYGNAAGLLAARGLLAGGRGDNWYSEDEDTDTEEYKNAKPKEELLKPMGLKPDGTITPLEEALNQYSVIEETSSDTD
UniProt Q9UM13, whole entry: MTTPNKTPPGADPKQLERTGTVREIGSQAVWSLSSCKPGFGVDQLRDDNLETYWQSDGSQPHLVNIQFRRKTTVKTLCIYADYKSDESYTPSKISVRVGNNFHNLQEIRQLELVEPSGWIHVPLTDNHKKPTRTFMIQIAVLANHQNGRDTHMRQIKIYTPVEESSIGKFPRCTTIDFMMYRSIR

The targets below were run with Nc1ncnc2c1ncn2[C@@H]1O[C@H](COP(=O)(O)OP(=O)(O)NP(=O)(O)O)[C@@H](O)[C@H]1O [adenylyl imidodiphosphate] (assay: NP40-soluble protein abundance relative to vehicle (solubility fold change) (ratio); higher = more soluble protein in presence of AMP-PNP). Conditions: concentration: 0.5mM.
Outline: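 Jurkat crude lysate prepared with a Dounce homogeniser was treated at eight concentrations spanning 0.1 to 10 mM, 10 min at room temperature then 3 min at 37 °C. Solubilisation with 0.8% NP40 and benzonase and ultracentrifugation preceded TMT labelling of the supernatant for LC-MS/MS. Fold change against the detergent-processed vehicle was determined per replicate from vsn-normalised intensities, across three independent experiments.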

How did the NP40-soluble protein abundance turn out when “C9JUL4 and related entries (UniProt Q9UDY4)” was run?
The NP40-soluble protein abundance was 1 ± 0.022.

With “C9J7Z4 and related entries (UniProt Q8NCE0)” as the target, how does the NP40-soluble protein abundance read?
The NP40-soluble protein abundance was 0.977 ± 0.044.

With “C9JFE4 and related entries (UniProt Q13098)” as the target, how does the NP40-soluble protein abundance read?
Its NP40-soluble protein abundance is 1.04 ± 0.057.

For “C9JEX3 and related entries (UniProt Q13614)”, which NP40-soluble protein abundance is on record?
The NP40-soluble protein abundance was 1.01 ± 0.029.

With “C9J2U0 and related entries (UniProt P24864)” as the target, how does the NP40-soluble protein abundance read?
The NP40-soluble protein abundance was 0.966 ± 0.064.

Which NP40-soluble protein abundance does the source give for “C9JBI3 and related entries (UniProt P78330)” here?
The NP40-soluble protein abundance was 0.977 ± 0.046.

“D6RBY0 and related entries (UniProt Q8TAC1)” was tested. Which NP40-soluble protein abundance did it give?
The NP40-soluble protein abundance was 0.999 ± 0.014.

For “C9J2Y9 and related entries (UniProt P30876)”, which NP40-soluble protein abundance is on record?
Its NP40-soluble protein abundance is 0.993 ± 0.077.

With “C9JFR7 and related entries (UniProt P99999)” as the target, how does the NP40-soluble protein abundance read?
Its NP40-soluble protein abundance is 1.07 ± 0.12.

How did the NP40-soluble protein abundance turn out when B5MCQ4 (UniProt Q9BY27) was run?
Its NP40-soluble protein abundance is 1.01 ± 0.048.

With “B8ZZS2 and related entries (UniProt Q13506)” as the target, how does the NP40-soluble protein abundance read?
Its NP40-soluble protein abundance is 1.01 ± 0.012.

With “B1AL69 and related entries (UniProt Q7L3B6)” as the target, how does the NP40-soluble protein abundance read?
Its NP40-soluble protein abundance is 0.996 ± 0.032.

Which NP40-soluble protein abundance does the source give for UniProt A2RRP1 and related entries here?
Its NP40-soluble protein abundance is 0.962 ± 0.1.

How did the NP40-soluble protein abundance turn out when “A6PVN5 and related entries (UniProt Q15257)” was run?
The NP40-soluble protein abundance was 1.03 ± 0.05.

How did the NP40-soluble protein abundance turn out when “D3YTB1 and related entries (UniProt P62910)” was run?
The NP40-soluble protein abundance was 1.02 ± 0.071.

For “C9J712 and related entries (UniProt P35080)”, which NP40-soluble protein abundance is on record?
The NP40-soluble protein abundance was 1.07 ± 0.092.

“C9JDQ1 and related entries (UniProt Q13724)” was tested. Which NP40-soluble protein abundance did it give?
Its NP40-soluble protein abundance is 0.98 ± 0.035.

For “B7WPL0 and related entries (UniProt Q9NVN3)”, which NP40-soluble protein abundance is on record?
Its NP40-soluble protein abundance is 0.997 ± 0.021.

For “D6R9Q5 and related entries (UniProt Q9UM13)”, which NP40-soluble protein abundance is on record?
The NP40-soluble protein abundance was 0.999 ± 0.031.
